These results are taken from paper PMC4439739.

No constants are given. Whether binding was seen depends on the method and setting. In cells and extracts the contact can be indirect. Some entries that bind do so weakly or less than the wild type.

The assay concerns the target T1, MIC60 (Mitofilin, IMMT), endogenous (human (endogenous in 293T and HCT116)) (UniProt Q16891).
T1 sequence: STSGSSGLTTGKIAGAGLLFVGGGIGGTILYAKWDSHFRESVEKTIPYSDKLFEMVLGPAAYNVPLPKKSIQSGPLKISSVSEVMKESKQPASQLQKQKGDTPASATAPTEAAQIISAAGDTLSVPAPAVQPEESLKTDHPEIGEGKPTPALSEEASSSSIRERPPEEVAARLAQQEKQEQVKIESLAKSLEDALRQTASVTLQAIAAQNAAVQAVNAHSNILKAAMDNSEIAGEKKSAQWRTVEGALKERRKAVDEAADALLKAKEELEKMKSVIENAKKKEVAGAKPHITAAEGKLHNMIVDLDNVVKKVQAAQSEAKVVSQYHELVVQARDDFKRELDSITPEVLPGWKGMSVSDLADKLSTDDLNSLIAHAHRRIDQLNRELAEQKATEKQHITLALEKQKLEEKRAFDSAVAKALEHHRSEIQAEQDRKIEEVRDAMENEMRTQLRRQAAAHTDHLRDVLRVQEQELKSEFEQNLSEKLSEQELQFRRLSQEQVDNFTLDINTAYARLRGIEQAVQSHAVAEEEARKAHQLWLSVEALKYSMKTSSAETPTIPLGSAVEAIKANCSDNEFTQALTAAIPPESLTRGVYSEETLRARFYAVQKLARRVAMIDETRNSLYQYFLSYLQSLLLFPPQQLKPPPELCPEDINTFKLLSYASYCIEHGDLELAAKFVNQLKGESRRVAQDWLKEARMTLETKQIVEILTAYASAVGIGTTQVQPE
Kind of assay: co-IP; endogenous MIC60 immunopurified from crude mitochondria isolated from HCT116 cells stably expressing FF2 (control) or QIL1 shRNA; immunoblot, densitometry. A general note: Immunoblotting shows a protein as a band on a membrane.

B1: SAMM50, endogenous (protein, UniProt Q9Y512 1-469)
chain: MGTVHARSLEPLPSSGPDFGGLGEEAEFVEVEPEAKQEILENKDVVVQHVHFDGLGRTKDDIIICEIGDVFKAKNLIEVMRKSHEAREKLLRLGIFRQVDVLIDTCQGDDALPNGLDVTFEVTELRRLTGSYNTMVGNNEGSMVLGLKLPNLLGRAEKVTFQFSYGTKETSYGLSFFKPRPGNFERNFSVNLYKVTGQFPWSSLRETDRGMSAEYSFPIWKTSHTVKWEGVWRELGCLSRTASFAVRKESGHSLKSSLSHAMVIDSRNSSILPRRGALLKVNQELAGYTGGDVSFIKEDFELQLNKQLIFDSVFSASFWGGMLVPIGDKPSSIADRFYLGGPTSIRGFSMHSIGPQSEGDYLGGEAYWAGGLHLYTPLPFRPGQGGFGELFRTHFFLNAGNLCNLNYGEGPKAHIRKLAECIRWSYGAGIVLRLGNIARLELNYCVPMGVQTGDRICDGVQFGAGIRFL
As to B1, the binding result is “binds”.
